From patent US20220193271A1 (REGENTS OF THE UNIVERSITY OF MICHIGAN, published 2022)
Results are given in words; binding and its absence hold for the method and conditions named. For some assays here: Binding seen in cells or lysates may run through a third protein. Some results given as binding are weak or reduced against the parent protein; the word gives no strength.

Tests used:
[1] = target: purified mouse cMet-ECD protein (50622-M08H, Sino Biological) (mouse) (UniProt P16056); assay: pull-down, peptide immobilized on EHS beads, Western blot
[2] = target: extracellular domain of purified cMet protein, cMet-ECD (10692-H08H, Sino Biological Inc.) (UniProt P08581); assay: phage display biopanning against purified cMet-ECD, enriched after 4 rounds

QQTNWSL [unlabeled QQT* (QQTNWSL)]
binding [1]: binds | binding [2]: binds
